SMILES strings stand for the structures. The list shows only some results of the screen, not a fair sample: it gathers tests that were run many times, whatever their T/C, doses with no T/C, and many T/C values between a quarter and a half above the control. Other doses and runs of a compound stand elsewhere. T/C is the treated group as % of the vehicle group. Some doses have a count of surviving animals in place of a T/C: the source holds a T/C of zero for them, seemingly a mark for toxic or unscored doses. Some survivor counts are full or nearly so, which does not show that the dose was tolerated: the source hardly ever lists a survival T/C far under the control, and the zero likely stands for such cases as well. Survivors were counted at the toxicity check, usually on the fifth day, unless a day is given; later deaths do not show. Schedules are NCI's codes, read here as Q, the interval in days (D) or hours (H), X, the number of doses. Some entries were tested several times; the results are listed from low to high. For survival time, the PubChem record calls one and a half times the control and up active, and a quarter to a half above the control has no call in these data; cut-offs in other NCI protocols can differ. Some T/C values are followed by the survivors on the day toxicity was checked, most often the fifth; without a count, all were alive then.

20 compounds from PubChem BioAssay AID330 (DTP/NCI, 2004) can be followed below.

In the assay the test system is P388 leukemia ip, CD2F1 mice, survival T/C. The assay can be described thus: NCI In Vivo Anticancer Drug Screen. Data for tumor model P388 Leukemia (intraperitoneal) in CD2F1 (CDF1) mice. The note with it: T/C endpoint: median survival time, higher T/C = longer survival.
[1] abbreviates: dose: 100.0 mg/kg/injection, schedule: Q01DX009 (ip), vehicle: saline with Tween-80.
The mark [2] stands for this setting: dose: 200.0 mg/kg/injection, schedule: Q01DX009 (ip), vehicle: saline with Tween-80.
The mark [3] stands for this setting: dose: 50.0 mg/kg/injection, schedule: Q01DX005 (ip), vehicle: Klucel (hydroxypropylcellulose) (HPC).
The mark [4] stands for this setting: dose: 100.0 mg/kg/injection, schedule: Q01DX005 (ip), vehicle: Klucel (hydroxypropylcellulose) (HPC).
[5] abbreviates: dose: 200.0 mg/kg/injection, schedule: Q01DX005 (ip), vehicle: Klucel (hydroxypropylcellulose) (HPC).
Setting [6] is: dose: 100.0 mg/kg/injection, schedule: Q01DX005 (ip), vehicle: saline with Tween-80.
Where [7] appears, read: dose: 200.0 mg/kg/injection, schedule: Q01DX005 (ip), vehicle: saline with Tween-80.
Setting [8] is: dose: 6.25 mg/kg/injection, schedule: Q04DX003 (ip), vehicle: saline.
Setting [9] is: dose: 25.0 mg/kg/injection, schedule: Q04DX003 (ip), vehicle: saline.
Where [10] appears, read: dose: 50.0 mg/kg/injection, schedule: Q04DX003 (ip), vehicle: saline.
[11] abbreviates: dose: 50.0 mg/kg/injection, schedule: Q01DX009 (ip), vehicle: saline with Tween-80.

For `COc1ccc(C(=O)C(Br)C(Br)C(=O)O)cc1` (stereo not drawn), the survivor count under setting [1] is 2 of 6 and the survivor count under setting [2] is reported as 0 of 6.
Take `CN(C)CCCCNc1ccc(NCCCCN(C)C)c2c1C(=O)c1c(O)ccc(O)c1C2=O`: the survivor count is reported as 2 of 6 (dose: 25.0 mg/kg/injection, schedule: Q01DX009 (ip), vehicle: saline); 5 of 6 (dose: 50.0 mg/kg/injection, schedule: Q01DX009 (ip), vehicle: saline); 1 of 6 (dose: 100.0 mg/kg/injection, schedule: Q01DX009 (ip), vehicle: saline); 0 of 6 (dose: 200.0 mg/kg/injection, schedule: Q01DX009 (ip), vehicle: saline).
On to `CN=C(NCCc1ccccc1)c1ccc(NC(=O)c2ccc(C(=O)Nc3ccc(C(=NC)NCCc4ccccc4)cc3)cc2)cc1`, for which the T/C (dose: 12.5 mg/kg/injection, schedule: Q01DX005 (ip), vehicle: Klucel (hydroxypropylcellulose) (HPC)) is 144 % of control. Moreover, the survivor count is 0 of 6 and 4 of 6 (dose: 25.0 mg/kg/injection, schedule: Q01DX005 (ip), vehicle: Klucel (hydroxypropylcellulose) (HPC)); 0 of 6 under setting [3]; 0 of 6 under setting [4]; 0 of 6 under setting [5].
On to `CC1=C(C)C(=O)c2cc3c(-c4ccccc4)oc(-c4ccccc4)c3cc2C1=O`, for which the survivor count under setting [6] is 6 of 6 and the survivor count under setting [7] is 6 of 6.
As to `CC(=O)Nc1ccc(C(=O)N/N=C/c2ccccc2O)cc1`, the survivor count is 6 of 6 under setting [3], 6 of 6 under setting [4] and 6 of 6 under setting [5].
As for `CN(C[CH2][Sn]([CH3])([CH3])[Cl])C[CH2][Sn]([CH3])([CH3])[Cl]`, the survivor count runs as follows: (dose: 15.0 mg/kg/injection, schedule: Q01DX005 (ip), vehicle: saline) 0 of 6; (dose: 60.0 mg/kg/injection, schedule: Q01DX005 (ip), vehicle: saline) 0 of 6; (dose: 120.0 mg/kg/injection, schedule: Q01DX005 (ip), vehicle: saline) 0 of 6; (dose: 240.0 mg/kg/injection, schedule: Q01DX005 (ip), vehicle: saline) 0 of 6.
As for `CC1COS(=O)(=O)CS(=O)(=O)O1` (stereo not drawn), where the note is “dose: 120.0 mg/kg/injection, schedule: Q01DX005 (ip), vehicle: saline with Tween-80”, the T/C was 125 % of control. For the same compound, under “dose: 240.0 mg/kg/injection, schedule: Q01DX005 (ip), vehicle: saline with Tween-80”, the survivor count is 1 of 6.
In the case of `[Cl][Pt][Cl].[NH-]CCC[N-]CCCC[N-]CCC[NH-]`, the T/C is 130 % of control under setting [8] and 129 % of control [5 of 6 alive] under setting [9]. In addition, the survivor count under setting [10] was 0 of 6 and 2 of 6; the survivor count (dose: 100.0 mg/kg/injection, schedule: Q04DX003 (ip), vehicle: saline) was 1 of 6; the survivor count (dose: 200.0 mg/kg/injection, schedule: Q04DX003 (ip), vehicle: saline) is listed as 0 of 6.
As to `O=S(=O)(O)c1ccccc1N=Nc1ccc(N(CCCl)CCCl)cc1`, the T/C was 130 % of control (dose: 15.0 mg/kg/injection, schedule: Q01DX009 (ip), vehicle: saline with Tween-80); 138 % of control (dose: 30.0 mg/kg/injection, schedule: Q01DX009 (ip), vehicle: saline with Tween-80); 137 % of control under setting [11]; 142 % of control (dose: 60.0 mg/kg/injection, schedule: Q01DX009 (ip), vehicle: saline with Tween-80). Besides, the survivor count under setting [2] was 5 of 6.
`C1=CN2CC(c3ccccc3)=NNC2c2ccccc21` (stereo not drawn): the survivor count (dose: 400.0 mg/kg/injection, schedule: Q04DX002 (ip), vehicle: Klucel (hydroxypropylcellulose) (HPC)) is reported as 0 of 6.
As to `O=c1ccc2cc(-c3ccncc3)cnc2[nH]1`, under “dose: 100.0 mg/kg/injection, schedule: Q04DX002 (ip), vehicle: saline with Tween-80”, the survivor count is on record as 3 of 6.
Take `Cc1cc(C(=O)N/N=C/c2ccccc2O)c2cc(Br)ccc2n1`: the survivor count is listed as 6 of 6 (dose: 6.25 mg/kg/injection, schedule: Q01DX009 (ip), vehicle: saline with Tween-80) and 6 of 6 under setting [11].
Regarding `CS(=O)(=O)CCS(C)(=O)=O`, the survivor count under setting [1] is on record as 6 of 6.
As for `COc1cc(NCCCCCNC(C)C(C)C)c2ncccc2c1` (stereo not drawn), the survivor count runs as follows: under setting [6], 1 of 6; under setting [7], 0 of 6.
For the compound `CCC[CH2][Sn]1([CH2]CCC)[O]C2C(O)OC(CO)C(O)C2[O]1` (stereo not drawn), the survivor count by setting is: under setting [8], 5 of 6; (dose: 12.5 mg/kg/injection, schedule: Q04DX003 (ip), vehicle: saline) 4 of 6 and 6 of 6; under setting [9], 0 of 6; (dose: 25.0 mg/kg/injection, schedule: Q04DX003 (ip), vehicle: suspension in saline) 0 of 6; under setting [10], 0 of 6; (dose: 50.0 mg/kg/injection, schedule: Q04DX003 (ip), vehicle: suspension in saline) 1 of 6. Besides, the survivor count runs as follows: (dose: 100.0 mg/kg/injection, schedule: Q04DX003 (ip), vehicle: suspension in saline) 0 of 6 and 3 of 6; (dose: 200.0 mg/kg/injection, schedule: Q04DX003 (ip), vehicle: suspension in saline) 2 of 6; (dose: 400.0 mg/kg/injection, schedule: Q04DX003 (ip), vehicle: suspension in saline) 0 of 6.
Take `CC(CNC(Cc1ccccc1)c1ccccc1)NC(Cc1ccccc1)c1ccccc1` (stereo not drawn): the survivor count was 5 of 5 under setting [4] and 3 of 5 under setting [5].
In the case of `CC(=O)c1c(C)n(-c2ccccc2)c2c1nnc1ccccc12`, the survivor count (dose: 30.0 mg/kg/injection, schedule: Q01DX005 (ip), vehicle: Klucel (hydroxypropylcellulose) (HPC)) is listed as 6 of 6; the survivor count (dose: 60.0 mg/kg/injection, schedule: Q01DX005 (ip), vehicle: Klucel (hydroxypropylcellulose) (HPC)) is listed as 6 of 6; the survivor count (dose: 120.0 mg/kg/injection, schedule: Q01DX005 (ip), vehicle: Klucel (hydroxypropylcellulose) (HPC)) is on record as 6 of 6; the survivor count (dose: 240.0 mg/kg/injection, schedule: Q01DX005 (ip), vehicle: Klucel (hydroxypropylcellulose) (HPC)) is reported as 5 of 6.
`CN(C)CCCN1CCC2(CCC(C(C)(C)C)CC2)CC1`: the survivor count under setting [7] is on record as 0 of 6.
For `COc1cc(/C=C2\SC(=S)N(CCCN3CCOCC3)C2=O)ccc1O`, the survivor count under setting [1] is 6 of 6 and the survivor count under setting [2] was 6 of 6.
For `O=[N+]([O-])c1ccc(/C=N/O)s1`, under “dose: 100.0 mg/kg/injection, schedule: Q01DX009 (ip), vehicle: Klucel (hydroxypropylcellulose) (HPC)”, the survivor count is on record as 0 of 6.
